The target of experiment [1] is Cas ligand with multiple SH3 domains (CMS) with a C-terminal PinPoint tag (UniProt Q9Y5K6). Briefly: co-IP.
Experiment [2] addresses YFP-tagged Grb2 (UniProt P62993). Briefly: co-IP.
Experiment [3] concerns the target NS5A-ΔPSTCD fusion protein (WT) expressed from SGR-ΔPSTCD-neo-JFH-1 (hepatitis C virus, genotype 2a, isolate JFH-1) (UniProt Q99IB8). Briefly: phage display library screen; NS5A-ΔPSTCD purified from SGR-harbouring cell lysates on streptavidin-magnetic beads used to screen a phage library expressing all 296 human SH3 domains; only the target purified.

Sequences of proteins named here, by UniProt entry; tags and fusion partners are left off. Residues count along the entry.
UniProt Q9Y5K6: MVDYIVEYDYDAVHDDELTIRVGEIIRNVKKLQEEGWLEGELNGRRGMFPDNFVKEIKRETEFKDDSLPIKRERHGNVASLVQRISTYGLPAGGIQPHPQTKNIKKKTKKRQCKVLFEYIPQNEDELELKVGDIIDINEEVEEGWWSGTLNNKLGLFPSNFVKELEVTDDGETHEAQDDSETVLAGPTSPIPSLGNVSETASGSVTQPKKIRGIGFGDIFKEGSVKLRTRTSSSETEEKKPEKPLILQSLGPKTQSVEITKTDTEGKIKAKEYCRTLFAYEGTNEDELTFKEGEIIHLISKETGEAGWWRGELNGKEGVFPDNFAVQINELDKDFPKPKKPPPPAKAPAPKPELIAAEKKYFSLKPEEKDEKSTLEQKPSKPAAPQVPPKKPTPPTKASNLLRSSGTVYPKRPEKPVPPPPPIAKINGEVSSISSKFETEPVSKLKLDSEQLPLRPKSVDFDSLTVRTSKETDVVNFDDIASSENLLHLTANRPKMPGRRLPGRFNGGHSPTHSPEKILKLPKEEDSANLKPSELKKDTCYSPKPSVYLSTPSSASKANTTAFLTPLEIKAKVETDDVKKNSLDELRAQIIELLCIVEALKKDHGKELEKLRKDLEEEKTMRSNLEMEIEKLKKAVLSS
UniProt P62993: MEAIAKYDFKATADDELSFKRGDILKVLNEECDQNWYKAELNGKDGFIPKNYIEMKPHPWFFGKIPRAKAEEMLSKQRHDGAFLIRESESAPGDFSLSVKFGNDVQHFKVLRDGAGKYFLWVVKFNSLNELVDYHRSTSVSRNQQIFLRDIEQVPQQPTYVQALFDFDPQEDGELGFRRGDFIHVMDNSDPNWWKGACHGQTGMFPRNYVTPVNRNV
UniProt P07948, residues 63-123: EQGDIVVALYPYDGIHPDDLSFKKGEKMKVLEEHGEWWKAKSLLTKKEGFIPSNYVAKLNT
UniProt P08631, residues 78-138: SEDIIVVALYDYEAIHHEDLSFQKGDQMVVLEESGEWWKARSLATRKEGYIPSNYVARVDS

Experimental findings from paper PMC4681064 are described below.

These are yes or no findings as the source states them, for the method shown. For part of these data: In cells and extracts the contact can be indirect. Some binding calls cover weakened binding; strength is not graded here.

As to “HCV NS5A protein (WT) expressed from SGR-neo-JFH-1 (from UniProt Q99IB8 1977-2442)”, the binding entry in experiment [1] and in experiment [2] was “binds” throughout.

As for “SH3 domain of the Src kinase Lyn displayed on phage (from UniProt P07948 63-123) (domain or fragment)”, the binding entry in experiment [3] is “binds”.

Consider “SH3 domain of the Src kinase Hck displayed on phage (from UniProt P08631 78-138) (domain or fragment)”, for which the binding result in experiment [3] is reported as “binds”.

B1: SH3 domain of Amphiphysin II displayed on phage (domain or fragment, UniProt O00499 520-593)
chain: GFMFKVQAQHDYTATDTDELQLKAGDVVLVIPFQNPEEQDEGWLMGVKESDWNQHKELEKCRGVFPENFTERVP
For B1, in experiment [3], the binding result was “binds”.

B2: SH3 domain of mixed-lineage kinase (Mlk3) displayed on phage (domain or fragment, UniProt Q16584 41-105)
chain: YANPVWTALFDYEPSGQDELALRKGDRVEVLSRDAAISGDEGWWAGQVGGQVGIFPSNYVSRGGG
In the case of B2, the binding entry in experiment [3] was “binds”.
